Reference: the supplement of paper PMC12889115
This is one part of the list. These are raw signals, not scaled to a control.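 First-pass screen: polymyxin B was added at a level that permeabilizes the Salmonella outer membrane while sparing the inner membrane. DMSO wells, with and without polymyxin B, defined maximum growth. Because plates differed from one another, each plate's data were ranked separately and the compounds with the lowest OD600 were carried forward as hits.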

Tested on: Salmonella enterica serovar Typhimurium SL1344
Experiment: bacterial growth OD600 after 18 h with compound and polymyxin B; higher = more bacterial growth (less inhibition)
Details: 50 µM, Mueller-Hinton broth

Compound | bacterial growth OD600 (polymyxin B 0.75 µg/mL) | bacterial growth OD600 (polymyxin B 1 µg/mL)
CCC1(C2CCN(Cc3cccc(OC)c3O)CC2)NC(=O)N(CCc2scnc2C)C1=O (centres undefined) | 0.998 | 
O=C(CC(F)(F)F)N1CCc2onc(-c3ccc(F)c(F)c3)c2C1 | 0.817 | 
COCCO[C@H]1[C@H](NC(=O)C(C)C)c2ccccc2C12CCN(C(=O)c1ccc(OC)cc1)CC2 | 0.975 | 
Cc1cccc(-n2ccnc2[C@@H]2C[C@H]3CN(c4ccccc4)C(=O)[C@]34CCCN24)c1 | 1.01 | 
COc1ccc(-c2nn(-c3ccccc3)cc2CN(C)C(C)c2ccon2)c(F)c1 (centres undefined) |  | 0.336
OCCC1CN(Cc2cnn(-c3cccc(F)c3)c2)CCN1Cc1ccccc1F (centres undefined) |  | 0.954
O=C(NCCCc1ccccc1)C1CC(Cc2cccc(F)c2)=NO1 (centres undefined) | 0.715 | 
COc1cc(CN2CCN(Cc3cc(C)cc(C)c3)CC2CCO)cc(OC)c1 (centres undefined) |  | 0.859
CCCn1cc(CN(C)CC2CCCN(CCc3ccc(OC)cc3)C2)c(C)n1 (centres undefined) |  | 0.836
O=C1N(CC2CC2)CCCC1(O)CN1CCC(Cc2ccccc2)CC1 (centres undefined) |  | 0.879
CC(C)CCN1CCOc2ccc(C(C)(O)COc3ccccc3)cc2C1 (centres undefined) | 0.792 | 
CCC1CN(CCNC(=O)CCc2c(C)noc2C)Cc2cc(OC)ccc2O1 (centres undefined) | 0.877 | 
COCCC(=O)N1CCCC(N2CCN(c3cccc(Cl)c3)CC2)C1 (centres undefined) |  | 0.923
CC(C)CC(=O)Nc1ccnn1C1CCN(Cc2ccc3nsnc3c2)CC1 |  | 1.17
O=C(c1ccccc1F)N1CCC(C2(c3ccccn3)NC(=O)N(CCc3cccs3)C2=O)CC1 (centres undefined) | 0.837 | 
Cc1c(C(C)NC(=O)NC(C)C)cnn1-c1cccc2ccccc12 (centres undefined) |  | 0.962
CN(C)c1ccccc1C(=O)N1CCCC(Nc2ccc(F)cc2)C1 (centres undefined) |  | 0.833
CO[C@H]1[C@H](NC(=O)c2ccccn2)c2ccccc2C12CCN(C(=O)C1=CCCC1)CC2 | 0.847 | 
CCN1CCN(C2(C(=O)N3CCN4CCCC4C3)Cc3ccccc3C2)CC1 (centres undefined) | 0.947 | 

Full records from above:
Cc1c(C(C)NC(=O)NC(C)C)cnn1-c1cccc2ccccc12 (centres undefined) reads bacterial growth OD600 (polymyxin B 1 µg/mL): 0.962
CCN1CCN(C2(C(=O)N3CCN4CCCC4C3)Cc3ccccc3C2)CC1 (centres undefined) reads bacterial growth OD600 (polymyxin B 0.75 µg/mL): 0.947
